From patent EP1591450A1 (YAMANOUCHI PHARMACEUTICAL CO. LTD., priority 2003, dated 2004)

Assay: general procedure: Fmoc solid-phase peptide synthesis; Fmoc-Gly-Wang Resin; HBTU/DIEA
Details: whole synthesis, RP-HPLC peak area ratio

Q: With “9-fluorenylmethylcarbonyl (Fmoc)-glycyl-hydroxyprolyl-alanyl-seryl-cyclohexylglycyl-glutamyl-seryl-isoleucyl-glycine (Gly-Hyp-Ala-Ser-Chg-Gln-Ser-Leu-Gly) (Fmoc-GHypASChgQSLG)” as the substance, how does the “final HPLC purity” value read?
A: The value was 100%.

Q: For “9-fluorenylmethylcarbonyl (Fmoc)-glycyl-prolyl-glutamyl-glycyl-isoleucyl-tryptophanyl-glycyl-glutamyl-glycine (Gly-Pro-Gln-Gly-Ile-Trp-Gly-Gln-Gly) (Fmoc-GPQGIWGQG)”, which “final HPLC purity” value is on record?
A: Its value is 98.4%.

Q: Which “final HPLC purity” value does the source give for “9-fluorenylmethylcarbonyl (Fmoc)-glycyl-prolyl-leucyl-glycyl-isoloucyl-alanyl-glycyl-glutamyl-glycine (Gly-Pro-Leu-Gly-Be-Ala-Gly-Gln-Gly) (Fmoc-GPLGIAGQG)” here?
A: The value was 98.7%.

Q: For “9-fluorenylmethyloxycarbonyl (Fmoc)-glycyl-prolyl-glutamyl-glycyl-isoleucyl-alanyl-glycyl-tryptophanyl-glycine (Gly-Pro-Gln-Gly-Ile-Ma-Gly-Trp-Gly) (Fmoc-GPQGIAGWG)”, which “final HPLC purity” value is on record?
A: The value was 99.5%.
